Laboratory results taken from PubChem BioAssay (NCATS).
Values joined by “and” are separate entries in the source; they are usually repeats but may differ in a detail not shown here. Equal entries are not always repeated. Inconclusive results, whose numbers are uncertain, are shown with a selection of clear calls. A potency beside an inconclusive call is a rough fit, not a confirmed value. Active and inactive are the calls of the source. The call rests on the fitted dose curve; in most records, active means well fitted cell-killing curve with a large enough effect; inconclusive means small, poorly fitted or top-dose-only effect, or effect the other way; inactive means no such curve, though single readings can be large or run the other way.

test: Quantitative High-Throughput drug screen in 47 multiple myeloma cell lines against the NCATS MIPE library collection: RPMI8226_ATCC cell viability assay (AID 1919871); conditions: RPMI8226 myeloma viability, CellTiter-Glo ATP luminescence, 48 h; series mostly up to 45.8 µM; viability (% of control): at the top concentration; further: nearly all actives have a fitted effect of over 30% in size
Source text: PI: Beverly A. Mock Ph.D.
Laboratory of Cancer Biology and Genetics,
Center for Cancer Research, National Cancer Institute,
National Institute of Health, Bethesda, Maryland
Drug resistance and disease progression are common in multiple myeloma (MM) patients, underscoring the need for new therapeutic combinations. […] We hypothesized that effective combinations would reduce MYC expression and enhance p16 activity. […] These preclinical data identify potentially useful drug combinations for evaluation in drug-resistant MM and reveal potential mechanisms of combined drug sensitivity.
Described herein is the primary MIPE qHTS used to cherrypick compounds. Validated compounds were then further tested for potential synergistic activiy.
[1] Peat TJ, Gaikwad SM, Dubois W, Gyabaah-Kessie N, Zhang S, Gorjifard S, Phyo Z, Andres M, Hughitt VK, Simpson RM, Miller MA, Girvin AT, Taylor A, Williams D, D'Antonio N, Zhang Y, Rajagopalan A, Flietner E, Wilson K, Zhang X, Shinn P, Klumpp-Thomas C, McKnight C, Itkin Z, Chen L, Kazandijian D, Zhang J, Michalowski AM, Simmons JK, Keats J, Thomas CJ, Mock BA. Drug combinations identified by high-throughput screening promote cell cycle transition and upregulate Smad pathways in myeloma. Cancer Lett. 2023 Aug 1;568:216284. doi: 10.1016/j.canlet.2023.216284. Epub 2023 Jun 24. PMID: 37356470; PMCID: PMC10408729.
SEQUENCE No. (e.g., 1, 2, 3, etc.); […] (e.g., Cells, Incubation, Reagent, etc.); VALUE and DESCRIPTION.
1; Cells; 5 uL; white, solid bottom 1536-well Greiner assay plate.
2; Compounds; 23 nL; Kalypsis pin tool (Wako USA) equipped with a 1536-well pin head to transfer to the assay plates.
3; Incubation; 48 hours; 37C incubation.
4; Reagent;5uL; CellTiter Glo (Promega).
5; Detector; 425V; Luminescence; Viewlux PerkinElmer.
NOTES (numbers refer to Sequence numbers above)
1. The cell-based screening methods employed in this study were like those previously published. Briefly, the corresponding myeloma cell lines were screened in 1,536-well plates with 500 cells, 5-uL per well for inhibition of cell viability (assessed by measuring ATP levels with CellTiterGlo).
2. NCATS MIPE 4.0 library of approved and investigational drugs were added using the Kalypsis pin tool. Wells treated with DMSO only for 100% viability and media only for 0% viability were used as controls.
3. The assay plates were covered and incubated for 48 hours in a 37C, 5% CO2 incubator with controlled humidity.
4. After 48 hours, CellTilter-GloTM luminescent substrate mix (Promega) reagent was added to the assay plate and plates we incubated for 5 min at room temperature.
5. Signal was measured as median relative luminescence units on a ViewLux (PerkinElmer) multiplate reader.
[1] Heske CM, Davis MI, Baumgart JT, Wilson K, Gormally MV, Chen L, Zhang X, Ceribelli M, Duveau DY, Guha R, Ferrer M, Arnaldez FI, Ji J, Tran HL, Zhang Y, Mendoza A, Helman LJ, Thomas CJ. Matrix Screen Identifies Synergistic Combination of PARP Inhibitors and Nicotinamide Phosphoribosyltransferase (NAMPT) Inhibitors in Ewing Sarcoma. Clin Cancer Res. 2017 Dec 1;23(23):7301-7311. doi: 10.1158/1078-0432.CCR-17-1121. Epub 2017 Sep 12. PMID: 28899971; PMCID: PMC6636827.
Potency means the concentration at half of the fitted maximal effect.

Compound | Potency | viability (% of control)
O=S(=O)(O)CCSSCCS(=O)(=O)O | inconclusive: 0.0833 µM [rising, full curve] | –
N#CC1(c2ccc(NC(=O)c3cccnc3NCc3ccncc3)cc2)CCCC1 | inconclusive: 29.6 µM [cytotoxic, partial curve, poor fit] | –
CCCCN(CCCC)CCC(O)c1cc2c(Cl)cc(Cl)cc2c2cc(C(F)(F)F)ccc12 (stereo not given) | – | inactive: 99%
O=C(Nc1nc2ccccc2n1CCN1CCOCC1)c1cccc([N+](=O)[O-])c1 | inconclusive: 6.62 µM [cytotoxic, partial curve, poor fit] | –
CCCCc1oc2ccccc2c1C(=O)c1cc(I)c(OCCN(CC)CC)c(I)c1 | active: 18.7 µM | –
CCNC(=O)c1noc(-c2cc(C(C)C)c(O)cc2O)c1-c1ccc(CN2CCOCC2)cc1 | inconclusive: 0.0526 µM [cytotoxic, full curve, poor fit] | –
CO[C@H]1C[C@@H]2CC[C@@H](C)[C@@](O)(O2)C(=O)C(=O)N2CCCC[C@@H]2C(=O)O[C@H]([C@H](C)C[C@@H]2CC[C@H](OCCO)[C@H](OC)C2)CC(=O)[C@H](C)C=C(C)[C@@H](O)[C@@H](OC)C(=O)[C@H](C)C[C@H](C)C=CC=CC=C1C | inconclusive: 3.72 µM [cytotoxic, partial curve] | –
C[C@H](NC(=O)c1sccc1OCc1ccc(Cl)cc1)c1ccccc1 | inconclusive: 16.6 µM [cytotoxic, partial curve] | –
N=c1ccn2c(n1)O[C@H]1[C@@H](O)[C@@H](CO)O[C@H]12 | – | inactive: 116%
COc1ccc(-c2oc3cc(OC)ccc3c2C(=O)c2ccc(C#N)cc2)cc1 | – | inactive: 116%
OC(CN1CCC(Cc2ccc(F)cc2)CC1)c1ccc(Cl)cc1 (stereo not given) | – | inactive: 102%
O=C(CCCN1CCC(O)(c2ccc(Cl)cc2)CC1)c1ccc(F)cc1 | inconclusive: 23.5 µM [cytotoxic, single point] | –
O=C(Nc1ccccc1)Nc1ccc(-c2ccc(C(=O)[C@H]3CCC[C@H]3C(=O)O)cc2)cc1 | – | inactive: 119%
CCc1ccc(C=C2SC(=S)NC2=O)cc1 | – | inactive: 86.3%
c1ccc2[nH]c(-c3cscn3)nc2c1 | – | inactive: 116%
CC[C@@H](C)[C@H](NC(=O)[C@H](CC1CCCCC1)NC(=O)c1ccno1)C(=O)N1CCC2(CCc3ccccc32)CC1 | inconclusive: 7.43 µM [cytotoxic, partial curve] | –
CN(c1ncccc1CNc1nc(Nc2ccc3c(c2)CC(=O)N3)ncc1C(F)(F)F)S(C)(=O)=O | active: 8.33 µM | –
CC(C=CC1=C(C)CCCC1(C)C)=CC=CC(C)=CC(=O)O | inconclusive: 1.32 µM [cytotoxic, partial curve] and inconclusive: 11.8 µM [cytotoxic, partial curve] | –
Cc1ccc(-n2nc(C(C)(C)C)cc2NC(=O)Nc2ccc(OCCN3CCOCC3)c3ccccc23)cc1 | inconclusive: 37.2 µM [cytotoxic, single point] | –
Cc1[nH]c(C=C2C(=O)Nc3ccccc32)c(C)c1CCC(=O)O | inconclusive: 33.2 µM [cytotoxic, single point] | –

Compound | Potency | viability (% of control)
Cc1cc(C=c2sc3nc4ccccc4n3c2=O)c(C)n1-c1ccccc1 | inconclusive: 0.833 µM [cytotoxic, partial curve, poor fit] | –
Nc1ccc(-c2ccc3ncc4ccc(=O)n(-c5cccc(C(F)(F)F)c5)c4c3c2)cn1 | inconclusive: 0.526 µM [cytotoxic, partial curve] | –
Oc1ccc2ccccc2c1SSc1c(O)ccc2ccccc12 | active: 26.4 µM | –
C[C@H](NC(=O)[C@@H](O)c1cc(F)cc(F)c1)C(=O)N[C@@H]1C(=O)N(C)c2ccccc2-c2ccccc21 | – | inactive: 102%
CC1(C)NC(=O)N(c2ccc([N+](=O)[O-])c(C(F)(F)F)c2)C1=O | inconclusive: 14.8 µM [cytotoxic, partial curve, poor fit] | –
Cc1nc(-c2ccc(OCC(C)C)c(C#N)c2)sc1C(=O)O | – | inactive: 118%
CN(C)c1ccc(Nc2nc(N)n(C(=O)c3c(F)cccc3F)n2)cc1 | – | inactive: 129%
O=C(O)c1cccnc1Nc1cccc(C(F)(F)F)c1 | – | inactive: 112%
N[C@H](CSC(c1ccccc1)(c1ccccc1)c1ccccc1)C(=O)O | inconclusive: 33.2 µM [cytotoxic, single point] | –
COc1ccc(C2Sc3ccccc3N(CCN(C)C)C(=O)C2OC(C)=O)cc1 (stereo not given) | – | inactive: 111%
Oc1cc(O)cc(C=Cc2ccc(O)c(O)c2)c1 | inconclusive: 14.8 µM [cytotoxic, partial curve, poor fit] | –
COC(=O)Nc1ccc(-c2nc(N3CCOCC3)c3cnn(C4CCN(C(=O)OC)CC4)c3n2)cc1 | active: 0.332 µM | –
CCN(CC)C(=S)SSC(=S)N(CC)CC | active: 0.0187 µM | –
NC(CO)(CO)CCc1ccc(Sc2cccc(OCc3ccccc3)c2)cc1Cl | active: 23.5 µM | –
O=C1NC(=O)C(=Cc2ccc3nccnc3c2)S1 | inconclusive: 9.11 µM [cytotoxic, partial curve, poor fit] | –
Clc1ccc2nsnc2c1NC1=NCCN1 | inconclusive: 0.0026 µM [rising, full curve, poor fit] | –
CC(C)CNc1ccnc(NCc2csc(-c3ccccc3)n2)n1 | inconclusive: 20.9 µM [cytotoxic, partial curve] | –
CC(=O)Oc1cc2c(s1)CCN(C(C(=O)C1CC1)c1ccccc1F)C2 (stereo not given) | inconclusive: 2.35 µM [cytotoxic, full curve] | –
CS(=O)(=O)N(Cc1ccco1)CC(O)Cn1c2ccccc2c2ccccc21 (stereo not given) | – | inactive: 84.4%
O=C(O)[C@H](CC(=O)N1C[C@@H]2CCCC[C@H]2C1)Cc1ccccc1 | inconclusive: 0.001 µM | –

2 consecutive compounds from above, for reference:
Compound | Potency | viability (% of control)
Oc1ccc2ccccc2c1SSc1c(O)ccc2ccccc12 | active: 26.4 µM | –
C[C@H](NC(=O)[C@@H](O)c1cc(F)cc(F)c1)C(=O)N[C@@H]1C(=O)N(C)c2ccccc2-c2ccccc21 | – | inactive: 102%
